These results are taken from PMC5996148.

What all share (assay): protein microarray (ProtoArray v5.0), streptavidin-Alexa Fluor 647
Common to all, as to details: 3'-biotin; 20 mM Tris (pH 7.5), 5 mM MgCl2, 100 mM KCl, 0.1% Tween-20, A/T-rich and random oligonucleotide blockers; temperature not stated; high values mean tight binding

Test [1] relates to Histone H2B type 1-D (human).
Test [2] concerns Histone H2B type 1-H (human).
Test [3] concerns Histone deacetylase 10 (human).
Test [4] has as its system Homeobox protein BarH-like 1 (human).
In test [5] the test system is Homeobox protein Hox-B6 (human).
Test [6] concerns Hsp90 co-chaperone Cdc37-like 1 (human).
Test [7] deals with Huntingtin-interacting protein M (human).
For test [8], the system named is Hydroxysteroid dehydrogenase-like protein 1 (human).
Test [9] has as its system ICEBERG (human).
In test [10] the test system is IDH3B (human).
The subject of test [11] is IFIH1 (human).
For test [12], the system named is IFIT3 (human).
Test [13] concerns the target T1, IFIT5 (UniProt Q13325).
T1 sequence: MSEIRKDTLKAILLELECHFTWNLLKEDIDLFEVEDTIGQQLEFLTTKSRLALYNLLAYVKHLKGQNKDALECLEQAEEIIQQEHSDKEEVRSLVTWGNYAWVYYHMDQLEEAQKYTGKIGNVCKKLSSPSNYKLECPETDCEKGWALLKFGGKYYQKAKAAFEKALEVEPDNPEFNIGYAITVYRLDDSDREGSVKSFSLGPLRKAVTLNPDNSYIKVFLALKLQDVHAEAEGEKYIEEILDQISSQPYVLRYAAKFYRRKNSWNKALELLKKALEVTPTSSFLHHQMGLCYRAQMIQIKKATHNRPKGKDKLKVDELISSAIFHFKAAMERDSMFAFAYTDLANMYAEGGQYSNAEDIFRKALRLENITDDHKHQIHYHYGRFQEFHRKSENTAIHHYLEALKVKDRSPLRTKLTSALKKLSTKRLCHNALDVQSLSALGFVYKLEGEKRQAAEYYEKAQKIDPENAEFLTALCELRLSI

Test [14] has as its system IFNA2 (human).
Test [15] has as its system IFNA6 (human).
Test [16] has as its system IFNA8 (human).
In test [17] the test system is IFNK (human).
Test [18] has as its system IFNW1 (human).
Test [19] deals with IGHA1 (human).
Test [20] concerns IGHM (human).

This is one part of the list. For some assays here: The exact form of the protein is not confirmed.

Consider “GGTGACAGGGGTATGGGGAGGGG [G4-2 biotinylated (Ct1)]”, for which the binding signal in test [1] was 3.36 z-score; in [2], 3.61 z-score; in [3], -0.379 z-score; in test [4], 3.17 z-score; in test [5], -0.398 z-score; in [6], -0.397 z-score. Also, the binding signal in test [7] was -0.386 z-score; in test [8] it was -0.372 z-score; in test [9], -0.38 z-score; in test [10] it was -0.376 z-score; in [11], -0.399 z-score; in [12], -0.401 z-score. In addition, the binding signal in [13] was 3.7 z-score; in [14], -0.375 z-score; in [15], -0.369 z-score; in test [16] it was -0.388 z-score; in [17] it was -0.387 z-score; in [18] it was -0.362 z-score. Further, the binding signal was -0.385 z-score in test [19] and -0.367 z-score in test [20].
